These are yes or no findings as the source states them, for the method shown. Binding seen in cells or lysates may run through a third protein. For some of these results: Tags and fused reporters may be left off the sequences shown.
What was measured:
Assay in all cases: co-IP
[1] = target: T1, HA-Zdhhc19 (mouse) (mouse) (UniProt Q810M5)
T1 sequence: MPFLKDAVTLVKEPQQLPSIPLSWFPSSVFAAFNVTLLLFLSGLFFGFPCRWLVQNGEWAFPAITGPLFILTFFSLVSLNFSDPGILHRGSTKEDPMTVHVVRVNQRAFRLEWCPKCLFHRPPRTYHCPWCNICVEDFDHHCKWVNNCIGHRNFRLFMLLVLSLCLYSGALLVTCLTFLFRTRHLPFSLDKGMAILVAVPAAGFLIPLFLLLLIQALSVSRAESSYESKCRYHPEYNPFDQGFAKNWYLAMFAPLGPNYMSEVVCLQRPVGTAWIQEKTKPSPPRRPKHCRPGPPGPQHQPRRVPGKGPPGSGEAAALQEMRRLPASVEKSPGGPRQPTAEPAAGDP

Amino acid sequences for entries named in this document (tags omitted).
UniProt Q9ESG8: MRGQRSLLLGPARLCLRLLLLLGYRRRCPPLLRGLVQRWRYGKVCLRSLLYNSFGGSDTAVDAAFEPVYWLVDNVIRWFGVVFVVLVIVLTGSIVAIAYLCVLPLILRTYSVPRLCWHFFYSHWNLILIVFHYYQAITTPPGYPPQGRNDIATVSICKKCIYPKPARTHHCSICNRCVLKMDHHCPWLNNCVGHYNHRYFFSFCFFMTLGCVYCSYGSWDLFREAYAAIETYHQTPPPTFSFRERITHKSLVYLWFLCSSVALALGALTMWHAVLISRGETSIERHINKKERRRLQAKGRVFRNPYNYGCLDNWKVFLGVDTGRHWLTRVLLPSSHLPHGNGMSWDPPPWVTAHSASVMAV
UniProt Q7Z5G4: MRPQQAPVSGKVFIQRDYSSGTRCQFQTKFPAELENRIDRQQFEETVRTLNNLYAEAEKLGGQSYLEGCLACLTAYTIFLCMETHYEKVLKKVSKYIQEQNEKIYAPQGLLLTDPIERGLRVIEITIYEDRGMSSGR

[2] = target: T2, HA-Zdhhc6 (mouse) (mouse) (UniProt Q9CPV7)
T2 sequence: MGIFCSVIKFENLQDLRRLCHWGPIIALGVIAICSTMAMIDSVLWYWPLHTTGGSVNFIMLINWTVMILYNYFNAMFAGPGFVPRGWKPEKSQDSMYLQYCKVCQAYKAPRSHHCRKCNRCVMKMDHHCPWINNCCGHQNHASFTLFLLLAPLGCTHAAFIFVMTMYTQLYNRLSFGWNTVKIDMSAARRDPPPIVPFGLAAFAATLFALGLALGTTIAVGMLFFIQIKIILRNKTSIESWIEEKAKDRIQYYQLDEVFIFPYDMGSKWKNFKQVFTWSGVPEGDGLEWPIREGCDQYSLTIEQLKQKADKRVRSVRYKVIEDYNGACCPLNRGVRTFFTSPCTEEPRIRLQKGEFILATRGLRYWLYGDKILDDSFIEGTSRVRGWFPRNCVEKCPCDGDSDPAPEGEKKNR

[3] = target: T3, HA-Zdhhc12 (mouse) (mouse) (UniProt Q8VC90)
T3 sequence: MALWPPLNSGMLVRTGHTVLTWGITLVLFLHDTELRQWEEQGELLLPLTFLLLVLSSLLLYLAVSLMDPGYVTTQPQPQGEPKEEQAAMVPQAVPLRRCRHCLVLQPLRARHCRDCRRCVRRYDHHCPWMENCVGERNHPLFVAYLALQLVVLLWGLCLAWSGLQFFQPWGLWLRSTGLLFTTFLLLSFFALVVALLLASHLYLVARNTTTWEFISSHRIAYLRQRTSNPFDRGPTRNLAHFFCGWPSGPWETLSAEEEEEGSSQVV

[4] = target: T4, HA-Zdhhc24 (mouse) (mouse) (UniProt Q6IR37)
T4 sequence: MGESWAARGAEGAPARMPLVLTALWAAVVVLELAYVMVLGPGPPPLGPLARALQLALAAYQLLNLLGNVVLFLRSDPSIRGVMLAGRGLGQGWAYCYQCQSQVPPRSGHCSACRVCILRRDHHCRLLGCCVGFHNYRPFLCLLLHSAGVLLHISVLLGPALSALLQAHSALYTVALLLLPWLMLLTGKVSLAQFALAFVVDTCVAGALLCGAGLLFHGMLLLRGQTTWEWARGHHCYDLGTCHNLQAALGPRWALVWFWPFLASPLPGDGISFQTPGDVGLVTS

[5] = target: T5, HA-Zdhhc21 (mouse) (mouse) (UniProt Q9D270)
T5 sequence: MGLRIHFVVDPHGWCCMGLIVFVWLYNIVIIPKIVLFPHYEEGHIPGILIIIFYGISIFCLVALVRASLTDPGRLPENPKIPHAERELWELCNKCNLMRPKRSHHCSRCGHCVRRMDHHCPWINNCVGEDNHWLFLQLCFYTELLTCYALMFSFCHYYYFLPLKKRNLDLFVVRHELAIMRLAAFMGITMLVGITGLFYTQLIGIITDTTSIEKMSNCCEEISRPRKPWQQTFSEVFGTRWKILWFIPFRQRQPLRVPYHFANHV

[6] = target: T6, HA-Zdhhc15 (mouse) (mouse) (UniProt Q8BGJ0)
T6 sequence: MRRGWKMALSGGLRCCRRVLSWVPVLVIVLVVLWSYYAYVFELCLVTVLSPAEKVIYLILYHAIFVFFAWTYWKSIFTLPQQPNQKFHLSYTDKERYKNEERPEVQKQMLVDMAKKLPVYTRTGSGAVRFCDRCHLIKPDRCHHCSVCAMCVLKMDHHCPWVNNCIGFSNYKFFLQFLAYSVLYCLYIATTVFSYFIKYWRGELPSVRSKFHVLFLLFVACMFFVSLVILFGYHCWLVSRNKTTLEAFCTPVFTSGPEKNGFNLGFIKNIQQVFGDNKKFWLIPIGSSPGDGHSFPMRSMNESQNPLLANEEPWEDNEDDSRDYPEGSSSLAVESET

[7] = target: HA-Zdhhc16 (mouse) (mouse) (UniProt Q9ESG8)

Measured: binding

endogenous human GOLGA7 (from UniProt Q7Z5G4 1-137)
no binding: all assays above

Reference: paper doi:10.1101/2025.04.28.651057
